# Laboratory results taken from the supplement of paper PMC10849652.
# Amino acid sequences for entries named in this document (tags omitted). A change or cut given only in a name is not applied to a line headed by its entry.
# UniProt Q15059, whole entry, looked up: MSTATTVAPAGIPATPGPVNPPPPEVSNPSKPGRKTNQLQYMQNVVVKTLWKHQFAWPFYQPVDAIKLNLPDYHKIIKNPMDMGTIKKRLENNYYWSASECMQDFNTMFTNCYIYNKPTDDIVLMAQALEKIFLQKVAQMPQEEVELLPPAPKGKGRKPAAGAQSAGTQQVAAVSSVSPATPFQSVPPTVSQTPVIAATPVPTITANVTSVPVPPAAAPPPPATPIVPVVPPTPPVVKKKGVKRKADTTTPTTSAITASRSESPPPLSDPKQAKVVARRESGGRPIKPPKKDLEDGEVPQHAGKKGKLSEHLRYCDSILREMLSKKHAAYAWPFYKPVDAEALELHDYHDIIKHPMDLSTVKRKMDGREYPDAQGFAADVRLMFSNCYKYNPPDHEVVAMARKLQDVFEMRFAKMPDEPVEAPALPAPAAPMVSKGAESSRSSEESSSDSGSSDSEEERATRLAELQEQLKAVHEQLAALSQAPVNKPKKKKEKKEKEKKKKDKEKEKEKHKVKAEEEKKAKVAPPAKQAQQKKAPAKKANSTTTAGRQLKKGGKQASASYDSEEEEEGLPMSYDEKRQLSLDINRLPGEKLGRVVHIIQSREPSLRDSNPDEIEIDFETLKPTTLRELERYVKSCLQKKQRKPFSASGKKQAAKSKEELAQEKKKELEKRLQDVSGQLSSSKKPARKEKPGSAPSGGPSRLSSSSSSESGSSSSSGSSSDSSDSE
# UniProt P61769, whole entry, looked up: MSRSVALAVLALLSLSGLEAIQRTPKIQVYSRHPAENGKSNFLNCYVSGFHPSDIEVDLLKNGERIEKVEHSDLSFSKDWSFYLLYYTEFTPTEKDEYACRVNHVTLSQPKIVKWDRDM
# UniProt Q9NUP1: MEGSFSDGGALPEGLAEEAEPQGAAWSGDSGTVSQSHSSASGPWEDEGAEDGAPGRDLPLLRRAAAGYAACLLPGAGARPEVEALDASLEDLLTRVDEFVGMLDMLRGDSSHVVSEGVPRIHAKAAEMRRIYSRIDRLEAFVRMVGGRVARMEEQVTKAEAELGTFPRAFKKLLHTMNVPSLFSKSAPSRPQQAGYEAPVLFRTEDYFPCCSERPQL
# UniProt Q07812, whole entry, looked up: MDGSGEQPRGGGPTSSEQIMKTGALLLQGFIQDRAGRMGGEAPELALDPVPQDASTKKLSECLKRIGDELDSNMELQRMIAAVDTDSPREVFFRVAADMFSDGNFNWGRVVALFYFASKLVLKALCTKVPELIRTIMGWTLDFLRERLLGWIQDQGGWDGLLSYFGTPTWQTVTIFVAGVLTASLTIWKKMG
# UniProt O75882: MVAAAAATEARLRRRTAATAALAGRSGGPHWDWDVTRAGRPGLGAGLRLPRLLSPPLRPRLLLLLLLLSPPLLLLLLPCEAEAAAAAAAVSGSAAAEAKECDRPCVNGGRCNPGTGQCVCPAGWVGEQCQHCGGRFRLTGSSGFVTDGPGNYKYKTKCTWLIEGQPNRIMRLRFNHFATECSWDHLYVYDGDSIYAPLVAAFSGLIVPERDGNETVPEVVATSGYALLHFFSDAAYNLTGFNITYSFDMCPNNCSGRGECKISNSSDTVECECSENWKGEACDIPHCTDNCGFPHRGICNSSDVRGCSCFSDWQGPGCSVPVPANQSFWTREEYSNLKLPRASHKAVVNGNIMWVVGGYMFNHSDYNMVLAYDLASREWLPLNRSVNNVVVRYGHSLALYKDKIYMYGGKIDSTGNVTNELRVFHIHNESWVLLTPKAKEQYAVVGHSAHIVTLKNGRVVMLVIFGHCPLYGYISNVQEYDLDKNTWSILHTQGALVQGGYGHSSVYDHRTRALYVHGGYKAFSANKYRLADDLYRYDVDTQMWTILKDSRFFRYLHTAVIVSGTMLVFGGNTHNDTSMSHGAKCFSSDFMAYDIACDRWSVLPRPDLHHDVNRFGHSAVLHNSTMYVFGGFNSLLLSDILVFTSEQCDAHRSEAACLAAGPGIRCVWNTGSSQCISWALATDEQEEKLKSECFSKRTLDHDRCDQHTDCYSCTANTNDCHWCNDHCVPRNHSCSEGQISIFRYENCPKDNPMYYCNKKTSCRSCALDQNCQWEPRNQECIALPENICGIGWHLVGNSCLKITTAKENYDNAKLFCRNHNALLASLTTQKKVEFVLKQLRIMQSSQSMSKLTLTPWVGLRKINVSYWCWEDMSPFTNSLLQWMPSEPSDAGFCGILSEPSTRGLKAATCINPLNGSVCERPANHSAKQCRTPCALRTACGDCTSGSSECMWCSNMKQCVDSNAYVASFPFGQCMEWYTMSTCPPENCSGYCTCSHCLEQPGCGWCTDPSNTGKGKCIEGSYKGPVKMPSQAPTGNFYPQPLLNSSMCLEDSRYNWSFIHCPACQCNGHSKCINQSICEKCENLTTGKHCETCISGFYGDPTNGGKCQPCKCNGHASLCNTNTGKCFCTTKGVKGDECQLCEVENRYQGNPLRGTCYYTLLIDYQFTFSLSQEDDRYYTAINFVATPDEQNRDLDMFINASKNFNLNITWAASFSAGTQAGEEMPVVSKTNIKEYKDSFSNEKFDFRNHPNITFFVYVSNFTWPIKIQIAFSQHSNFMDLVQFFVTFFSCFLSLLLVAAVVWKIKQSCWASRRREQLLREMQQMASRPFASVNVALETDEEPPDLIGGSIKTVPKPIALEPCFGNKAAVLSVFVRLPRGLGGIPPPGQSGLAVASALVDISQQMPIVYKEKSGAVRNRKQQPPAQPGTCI
# UniProt P07738: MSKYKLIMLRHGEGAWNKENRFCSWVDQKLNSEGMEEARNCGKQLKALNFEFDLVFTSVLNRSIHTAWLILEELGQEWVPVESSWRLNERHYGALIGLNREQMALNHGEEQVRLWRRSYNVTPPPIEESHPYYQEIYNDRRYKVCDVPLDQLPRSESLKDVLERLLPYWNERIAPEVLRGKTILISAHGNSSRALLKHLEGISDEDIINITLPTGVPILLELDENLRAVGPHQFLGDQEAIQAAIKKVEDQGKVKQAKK
# UniProt Q6QNY0: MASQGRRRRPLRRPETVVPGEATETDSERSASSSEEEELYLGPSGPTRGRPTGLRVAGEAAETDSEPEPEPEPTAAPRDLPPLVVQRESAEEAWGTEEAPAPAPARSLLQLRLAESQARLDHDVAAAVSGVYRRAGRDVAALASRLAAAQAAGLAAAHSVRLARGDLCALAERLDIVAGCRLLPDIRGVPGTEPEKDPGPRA
# UniProt Q6UW56: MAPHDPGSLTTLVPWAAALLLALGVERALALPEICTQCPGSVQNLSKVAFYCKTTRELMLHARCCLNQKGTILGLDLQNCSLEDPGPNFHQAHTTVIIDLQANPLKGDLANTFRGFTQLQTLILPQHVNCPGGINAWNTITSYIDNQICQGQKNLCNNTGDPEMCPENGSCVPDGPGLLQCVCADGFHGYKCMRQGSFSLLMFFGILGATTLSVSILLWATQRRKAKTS
# UniProt Q9H3K6: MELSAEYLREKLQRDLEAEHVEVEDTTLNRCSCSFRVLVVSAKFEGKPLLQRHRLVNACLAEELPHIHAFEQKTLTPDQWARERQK
# UniProt Q8TDN6: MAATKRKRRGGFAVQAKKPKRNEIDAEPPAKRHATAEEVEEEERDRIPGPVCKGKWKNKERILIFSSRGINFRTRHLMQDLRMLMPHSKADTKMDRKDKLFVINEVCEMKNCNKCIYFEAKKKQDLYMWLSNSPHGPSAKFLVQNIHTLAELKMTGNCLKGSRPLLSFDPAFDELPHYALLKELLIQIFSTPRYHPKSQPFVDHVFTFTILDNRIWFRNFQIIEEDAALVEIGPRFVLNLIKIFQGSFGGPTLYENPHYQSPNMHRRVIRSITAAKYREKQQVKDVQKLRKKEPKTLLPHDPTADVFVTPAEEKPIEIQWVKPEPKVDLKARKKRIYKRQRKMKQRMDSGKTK
# UniProt O95999: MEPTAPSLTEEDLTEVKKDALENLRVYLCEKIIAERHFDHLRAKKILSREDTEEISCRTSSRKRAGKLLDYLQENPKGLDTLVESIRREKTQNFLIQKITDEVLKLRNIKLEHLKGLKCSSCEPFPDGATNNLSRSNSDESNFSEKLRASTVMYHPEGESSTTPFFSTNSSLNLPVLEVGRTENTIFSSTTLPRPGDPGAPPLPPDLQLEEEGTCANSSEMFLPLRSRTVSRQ
# UniProt Q5VW32: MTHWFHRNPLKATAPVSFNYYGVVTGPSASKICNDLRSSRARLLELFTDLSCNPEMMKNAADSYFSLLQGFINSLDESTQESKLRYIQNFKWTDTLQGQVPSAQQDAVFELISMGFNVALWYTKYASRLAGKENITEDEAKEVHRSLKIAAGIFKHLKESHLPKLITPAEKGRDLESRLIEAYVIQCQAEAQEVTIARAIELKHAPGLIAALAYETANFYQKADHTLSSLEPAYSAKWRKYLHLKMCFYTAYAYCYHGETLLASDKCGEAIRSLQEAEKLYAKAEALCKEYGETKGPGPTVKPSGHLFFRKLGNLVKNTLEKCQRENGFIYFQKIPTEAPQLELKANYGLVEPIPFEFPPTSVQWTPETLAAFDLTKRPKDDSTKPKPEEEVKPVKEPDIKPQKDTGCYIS
# UniProt O15382: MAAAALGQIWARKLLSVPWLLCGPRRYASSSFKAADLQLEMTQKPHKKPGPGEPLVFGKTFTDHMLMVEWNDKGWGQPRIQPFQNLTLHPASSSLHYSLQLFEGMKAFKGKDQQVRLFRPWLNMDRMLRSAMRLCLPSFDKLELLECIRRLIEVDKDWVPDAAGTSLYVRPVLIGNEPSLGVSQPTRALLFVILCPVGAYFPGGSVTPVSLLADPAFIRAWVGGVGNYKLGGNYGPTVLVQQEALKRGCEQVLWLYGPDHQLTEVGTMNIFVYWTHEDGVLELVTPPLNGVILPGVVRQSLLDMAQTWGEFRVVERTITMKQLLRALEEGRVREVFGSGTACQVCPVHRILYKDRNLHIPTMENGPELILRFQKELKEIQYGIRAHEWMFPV
# UniProt P21953: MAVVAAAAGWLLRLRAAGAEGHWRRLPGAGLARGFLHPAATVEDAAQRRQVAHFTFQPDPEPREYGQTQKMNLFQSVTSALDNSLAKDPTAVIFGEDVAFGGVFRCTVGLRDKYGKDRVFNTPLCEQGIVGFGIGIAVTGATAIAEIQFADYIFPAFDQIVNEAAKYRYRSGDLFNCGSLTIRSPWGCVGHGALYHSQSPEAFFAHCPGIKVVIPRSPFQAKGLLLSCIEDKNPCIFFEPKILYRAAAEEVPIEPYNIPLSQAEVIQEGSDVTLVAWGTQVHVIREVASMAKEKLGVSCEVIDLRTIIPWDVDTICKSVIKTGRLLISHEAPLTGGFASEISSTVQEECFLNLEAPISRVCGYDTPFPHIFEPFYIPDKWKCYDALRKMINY
# UniProt P55957: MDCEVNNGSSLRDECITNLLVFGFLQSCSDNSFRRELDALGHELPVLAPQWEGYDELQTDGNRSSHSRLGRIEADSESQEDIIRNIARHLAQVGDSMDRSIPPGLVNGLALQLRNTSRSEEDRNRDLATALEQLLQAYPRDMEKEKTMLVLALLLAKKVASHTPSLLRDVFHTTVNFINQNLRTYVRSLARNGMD
# UniProt O95816: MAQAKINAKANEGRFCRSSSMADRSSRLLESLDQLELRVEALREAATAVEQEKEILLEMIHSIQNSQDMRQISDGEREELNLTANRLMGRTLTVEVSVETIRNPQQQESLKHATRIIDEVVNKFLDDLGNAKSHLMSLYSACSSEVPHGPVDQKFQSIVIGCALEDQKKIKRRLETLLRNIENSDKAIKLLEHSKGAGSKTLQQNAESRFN
# UniProt O43505: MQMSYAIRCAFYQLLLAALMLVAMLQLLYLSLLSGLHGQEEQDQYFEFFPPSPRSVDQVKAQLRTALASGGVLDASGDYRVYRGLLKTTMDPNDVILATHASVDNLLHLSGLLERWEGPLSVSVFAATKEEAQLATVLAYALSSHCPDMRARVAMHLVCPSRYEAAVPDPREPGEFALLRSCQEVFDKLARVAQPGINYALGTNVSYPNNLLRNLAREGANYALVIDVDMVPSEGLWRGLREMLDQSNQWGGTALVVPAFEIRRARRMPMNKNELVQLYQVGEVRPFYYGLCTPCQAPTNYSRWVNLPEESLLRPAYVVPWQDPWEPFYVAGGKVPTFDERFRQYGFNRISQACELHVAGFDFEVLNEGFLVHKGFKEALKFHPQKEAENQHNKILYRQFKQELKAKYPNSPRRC
# UniProt Q9BXH1: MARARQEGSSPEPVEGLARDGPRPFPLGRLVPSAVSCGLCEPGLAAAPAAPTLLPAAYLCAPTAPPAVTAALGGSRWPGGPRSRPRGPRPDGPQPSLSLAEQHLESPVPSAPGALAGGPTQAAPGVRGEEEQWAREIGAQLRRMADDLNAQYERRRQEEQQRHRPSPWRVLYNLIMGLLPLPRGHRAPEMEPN
# UniProt Q9HB09: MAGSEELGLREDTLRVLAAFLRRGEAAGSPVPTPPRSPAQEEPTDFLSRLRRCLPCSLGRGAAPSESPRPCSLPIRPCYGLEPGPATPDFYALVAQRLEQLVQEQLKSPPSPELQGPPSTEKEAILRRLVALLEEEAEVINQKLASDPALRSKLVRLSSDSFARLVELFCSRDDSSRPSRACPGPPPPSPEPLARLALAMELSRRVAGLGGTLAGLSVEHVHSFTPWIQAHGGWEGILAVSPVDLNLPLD
# The other results are listed elsewhere or left out.
# Compound: Nc1ccccc1NC(=O)c1ccc(CNC(=O)OCc2cccnc2)cc1 [entinostat]
# Assay: log2 fold change, soluble protein after heating vs DMSO (PISA); higher = thermal stabilisation; K562 cells, 10 uM, 30 min; active = over 0.2 and 3.5 SD of the protein, either way, in both replicates (recomputed)
# How it was run: (§1)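 K562 cells at 2×10^6 cells/mL were exposed to 10 μM compound for 30 min, then aliquots were heated for 3 min across 48°C-58°C, pooled, and extracted in PBS containing 0.5% NP-40 at 4°C. The supernatant after 21,000xg for 90 min was taken as soluble protein and measured by TMTpro 16plex LC-MS/MS with channel sums equalised. Thermal stability is reported relative to control samples, with values from duplicates. Fold changes are given on a log2 scale.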
row,Target,log2 fold change
1,ATR (UniProt Q13535),inactive: 0.017
2,BRD3 (UniProt Q15059),inactive: -0.123
3,BRIP1 (UniProt Q9BX63),inactive: 0.001
4,B2M (UniProt P61769),inactive: -0.021
5,BAG4 (UniProt O95429),inactive: -0.009
6,ATRIP (UniProt Q8WXE1),inactive: -0.026
7,BAG1 (UniProt Q99933),inactive: -0.003
8,BLOC1S4 (UniProt Q9NUP1),inactive: -0.056
9,BAX isoform 2 (UniProt Q07812),inactive: 0.002
10,ATRN (UniProt O75882),inactive: -0.016
11,BCAP31 isoform 2 (UniProt P51572),inactive: 0.002
12,BLVRA (UniProt P53004),inactive: -0.016
13,BPGM (UniProt P07738),inactive: -0.045
14,BLOC1S3 (UniProt Q6QNY0),inactive: -0.06
15,ATRAID isoform 3 (UniProt Q6UW56),inactive: -0.022
16,ATXN2L (UniProt Q8WWM7),inactive: 0.011
17,BOLA2 (UniProt Q9H3K6),inactive: 0.004
18,BABAM2 (UniProt Q9NXR7),inactive: -0.066
19,BRIX1 (UniProt Q8TDN6),inactive: -0.008
20,BCL10 (UniProt O95999),inactive: 0.043
21,BROX (UniProt Q5VW32),inactive: 0.071
22,BCAT2 (UniProt O15382),inactive: 0.004
23,BCKDHB (UniProt P21953),inactive: -0.2
24,BCAS2 (UniProt O75934),inactive: 0.059
25,BOP1 (UniProt Q14137),inactive: -0.004
26,BAK1 (UniProt Q16611),inactive: -0.026
27,BID isoform 2 (UniProt P55957),inactive: -0.018
28,BAG2 (UniProt O95816),inactive: 0.009
29,BCAP29 isoform 2 (UniProt Q9UHQ4),inactive: -0.014
30,B3GNTL1 (UniProt Q67FW5),inactive: -0.013

# Compound: O=C(CCCCCCC(=O)Nc1ccccc1)NO [vorinostat]
# Assay: as above
# How it was run: as §1
row,Target,log2 fold change
1,ATR (UniProt Q13535),inactive: 0.057
2,BRD3 (UniProt Q15059),active: -0.663
3,BRIP1 (UniProt Q9BX63),inactive: -0.025
4,B2M (UniProt P61769),inactive: -0.028
5,BAG4 (UniProt O95429),inactive: 0.049
6,ATRIP (UniProt Q8WXE1),inactive: -0.012
7,BAG1 (UniProt Q99933),inactive: 0.004
8,BLOC1S4 (UniProt Q9NUP1),inactive: 0.038
9,BAX isoform 2 (UniProt Q07812),inactive: -0.115
10,ATRN (UniProt O75882),inactive: -0.006
11,BCAP31 isoform 2 (UniProt P51572),inactive: -0.028
12,BLVRA (UniProt P53004),inactive: 0.028
13,BPGM (UniProt P07738),inactive: -0.007
14,BLOC1S3 (UniProt Q6QNY0),inactive: 0.039
15,ATRAID isoform 3 (UniProt Q6UW56),inactive: 0.063
16,ATXN2L (UniProt Q8WWM7),inactive: 0.004
17,BOLA2 (UniProt Q9H3K6),inactive: -0.005

row,Target,log2 fold change
1,B4GAT1 (UniProt O43505),inactive: 0.109
2,BABAM2 (UniProt Q9NXR7),inactive: -0.052
3,BRIX1 (UniProt Q8TDN6),inactive: 0.059
4,BCL10 (UniProt O95999),inactive: 0.04
5,BROX (UniProt Q5VW32),inactive: -0.021
6,BBC3 (UniProt Q9BXH1),inactive: -0.067
7,BCL2L12 (UniProt Q9HB09),inactive: -0.167
8,BCAT2 (UniProt O15382),inactive: -0.037
9,BCKDHB (UniProt P21953),inactive: -0.126
10,BCAS2 (UniProt O75934),inactive: -0.08
11,BOP1 (UniProt Q14137),inactive: 0.107
12,BAK1 (UniProt Q16611),inactive: -0.122
13,BID isoform 2 (UniProt P55957),inactive: -0.039
14,BAG2 (UniProt O95816),inactive: -0.017
15,BCAP29 isoform 2 (UniProt Q9UHQ4),inactive: -0.064
16,B3GNTL1 (UniProt Q67FW5),inactive: 0.022
